Test results published in paper doi:10.1101/2020.12.22.423950.
These are yes or no findings as the source states them, for the method shown. Binding seen in cells or lysates may run through a third protein. Here binding means that the protein was enriched with, or labelled near, the bait; the list need not be complete. Sequences can lack the tags named with a protein.

Biological target: T1, Flag- and HA-tagged Sting (F/HA-Sting), Stimulator of interferon genes (UniProt Q3TBT3)
T1 sequence: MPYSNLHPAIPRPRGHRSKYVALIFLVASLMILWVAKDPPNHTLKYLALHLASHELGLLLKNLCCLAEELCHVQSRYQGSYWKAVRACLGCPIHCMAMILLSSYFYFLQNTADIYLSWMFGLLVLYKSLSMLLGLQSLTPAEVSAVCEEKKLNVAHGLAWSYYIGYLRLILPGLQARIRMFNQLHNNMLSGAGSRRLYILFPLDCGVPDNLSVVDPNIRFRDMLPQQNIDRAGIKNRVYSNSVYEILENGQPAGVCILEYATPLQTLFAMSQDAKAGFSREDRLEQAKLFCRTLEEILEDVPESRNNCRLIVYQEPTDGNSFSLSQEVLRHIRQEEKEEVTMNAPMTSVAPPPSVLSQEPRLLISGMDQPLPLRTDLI
Assay: affinity purification with mass spectrometry

- binding: binds
B1: Fatty acid desaturase 2 (Fads2), endogenous in MEF (enzyme, UniProt Q9Z0R9 1-444)
chain: MGKGGNQGEGSTERQAPMPTFRWEEIQKHNLRTDRWLVIDRKVYNVTKWSQRHPGGHRVIGHYSGEDATDAFRAFHLDLDFVGKFLKPLLIGELAPEEPSLDRGKSSQITEDFRALKKTAEDMNLFKTNHLFFFLLLSHIIVMESLAWFILSYFGTGWIPTLVTAFVLATSQAQAGWLQHDYGHLSVYKKSIWNHVVHKFVIGHLKGASANWWNHRHFQHHAKPNIFHKDPDIKSLHVFVLGEWQPLEYGKKKLKYLPYNHQHEYFFLIGPPLLIPMYFQYQIIMTMISRRDWVDLAWAISYYMRFFYTYIPFYGILGALVFLNFIRFLESHWFVWVTQMNHLVMEIDLDHYRDWFSSQLAATCNVEQSFFNDWFSGHLNFQIEHHLFPTMPRHNLHKIAPLVKSLCAKHGIEYQEKPLLRALIDIVSSLKKSGELWLDAYLHK
